Measurements reported in publication PMC4503747.
Residue numbers refer to the chain shown, from its start. Results are given in words; binding and its absence hold for the method and conditions named. Binding seen in cells or lysates may run through a third protein. Some results given as binding are weak or reduced against the parent protein; the word gives no strength. For some of these results: Sequences can lack the tags named with a protein. Values belong to the substance of their own block, whether it stands above or below them.

Sequences of proteins named here, by UniProt entry; tags and fusion partners are left off.
UniProt P11440: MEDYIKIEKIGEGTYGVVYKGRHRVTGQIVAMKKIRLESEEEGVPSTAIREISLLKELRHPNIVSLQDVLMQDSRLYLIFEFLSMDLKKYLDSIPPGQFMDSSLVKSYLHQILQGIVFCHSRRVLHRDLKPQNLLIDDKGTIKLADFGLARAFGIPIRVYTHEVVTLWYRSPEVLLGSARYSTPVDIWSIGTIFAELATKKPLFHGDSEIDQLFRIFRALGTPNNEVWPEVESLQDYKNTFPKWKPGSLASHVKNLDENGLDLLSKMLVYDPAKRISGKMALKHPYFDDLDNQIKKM
UniProt P00546: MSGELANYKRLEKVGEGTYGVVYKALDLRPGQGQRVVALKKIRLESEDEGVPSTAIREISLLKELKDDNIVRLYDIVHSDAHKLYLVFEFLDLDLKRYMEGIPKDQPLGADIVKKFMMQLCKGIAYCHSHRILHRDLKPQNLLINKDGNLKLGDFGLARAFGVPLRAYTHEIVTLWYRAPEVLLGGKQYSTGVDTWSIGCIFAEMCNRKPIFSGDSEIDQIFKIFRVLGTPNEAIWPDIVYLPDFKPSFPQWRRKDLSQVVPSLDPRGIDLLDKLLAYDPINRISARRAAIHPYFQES

Columns and labels:
[1] = target: T1, IMPACT-FLAG (full-length IMPACT in pFLAG-CMV5a, expressed in N2a cells) (mouse) (UniProt O55091); experiment: co-IP; N2a cells transfected with IMPACT-FLAG or vector alone; lysate (50 mM Tris pH 7.4, 1 mM EDTA, 100 mM NaCl, 1% Triton X-100) pre-cleared with protein-A agarose, anti-FLAG (M2) affinity gel 1 hour at 4°C, eluted with FLAG peptide; immunoblot
T1 sequence: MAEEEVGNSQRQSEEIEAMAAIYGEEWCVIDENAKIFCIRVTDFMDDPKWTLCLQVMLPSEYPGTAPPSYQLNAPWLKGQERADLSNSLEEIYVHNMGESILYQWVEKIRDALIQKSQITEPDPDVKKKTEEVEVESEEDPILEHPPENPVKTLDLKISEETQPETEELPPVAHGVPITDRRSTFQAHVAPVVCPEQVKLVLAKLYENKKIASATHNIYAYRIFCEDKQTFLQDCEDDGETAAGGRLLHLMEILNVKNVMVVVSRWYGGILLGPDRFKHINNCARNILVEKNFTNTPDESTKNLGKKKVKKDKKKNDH

[2] = target: T2, GST-Yih1[133–258] (S. cerevisiae) (UniProt P25637); experiment: pull-down; in vivo GST pull-down: GST fusions overexpressed in yeast from a galactose-inducible promoter (yih1Δ strains; gcn1Δ strain H2556 for the fragments; also cells arrested in G1 with α-factor and released), WCE (1-2 mg) on glutathione beads, immunoblot for endogenous proteins
T2 sequence: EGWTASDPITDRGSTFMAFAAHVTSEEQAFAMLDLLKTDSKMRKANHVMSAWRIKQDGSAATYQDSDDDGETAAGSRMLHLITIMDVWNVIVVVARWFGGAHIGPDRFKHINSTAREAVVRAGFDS

[3] = target: T3, GST-IMPACT (mouse IMPACT fused to GST, expressed in yeast) (mouse) (UniProt O55091); experiment: as above
T3 sequence: T1 sequence

[4] = target: T4, GST-Yih1*H3 (D102A E106A in helix H3 of the RWD domain) (S. cerevisiae) (UniProt P25637); experiment: as above
T4 sequence: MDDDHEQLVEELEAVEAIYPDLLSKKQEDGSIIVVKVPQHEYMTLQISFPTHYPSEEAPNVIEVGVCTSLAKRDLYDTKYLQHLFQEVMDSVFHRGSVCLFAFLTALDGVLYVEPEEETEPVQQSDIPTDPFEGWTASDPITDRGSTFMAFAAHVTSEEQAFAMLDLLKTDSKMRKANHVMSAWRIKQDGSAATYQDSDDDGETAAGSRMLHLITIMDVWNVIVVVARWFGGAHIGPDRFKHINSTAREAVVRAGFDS

[5] = target: T5, GST-Yih1[2–171] (S. cerevisiae) (UniProt P25637); experiment: as above
T5 sequence: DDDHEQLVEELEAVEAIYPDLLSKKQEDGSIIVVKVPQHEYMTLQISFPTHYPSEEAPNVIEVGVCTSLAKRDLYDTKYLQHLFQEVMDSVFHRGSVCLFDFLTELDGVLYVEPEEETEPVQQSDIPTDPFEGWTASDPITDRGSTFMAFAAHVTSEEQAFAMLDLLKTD

[6] = target: T6, GST-Yih1[2–132] (S. cerevisiae) (UniProt P25637); experiment: as above
T6 sequence: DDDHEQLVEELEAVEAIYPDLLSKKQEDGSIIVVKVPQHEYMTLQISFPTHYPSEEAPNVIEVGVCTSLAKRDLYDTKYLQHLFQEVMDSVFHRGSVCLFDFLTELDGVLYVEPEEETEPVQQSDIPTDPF

[7] = target: T7, GST-Yih1[68–258] (S. cerevisiae) (UniProt P25637); experiment: as above
T7 sequence: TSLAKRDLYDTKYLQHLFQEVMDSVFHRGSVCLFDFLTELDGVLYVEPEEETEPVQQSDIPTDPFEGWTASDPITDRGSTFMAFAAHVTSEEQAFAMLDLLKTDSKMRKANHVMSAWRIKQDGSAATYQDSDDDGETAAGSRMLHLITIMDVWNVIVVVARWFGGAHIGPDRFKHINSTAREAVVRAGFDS

[8] = target: T8, GST-Yih1[68–171] (S. cerevisiae) (UniProt P25637); experiment: as above
T8 sequence: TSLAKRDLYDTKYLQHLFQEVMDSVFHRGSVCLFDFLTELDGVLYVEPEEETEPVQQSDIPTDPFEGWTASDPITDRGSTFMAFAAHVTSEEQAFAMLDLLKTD

[9] = target: GST-Yih1*H2 (E87A and D90A in helix H2 of the RWD domain) (S. cerevisiae) (UniProt P25637); experiment: as above
[10] = target: T9, GST-Yih1 purified from E. coli (S. cerevisiae) (UniProt P25637); experiment: pull-down; purified GST-Yih1 (2, 4 and 6 μg) or GST alone (6 μg) immobilized on glutathione-Sepharose beads blocked with 0.5% BSA, incubated with yeast WCE of a yih1Δ strain (MSY-Y2) for 1 hour at 4°C; 30 mM HEPES pH 7.4, 200 mM NaCl, 1 mM EDTA, 1 mM DTT, 0.5% Nonidet P40; immunoblot; only the target purified
T9 sequence: T4 sequence with A102D, A106E

- binding [1]: binds
Substance: CDK1 (endogenous, mouse N2a cells) (from UniProt P11440 1-297)

- binding [2]: binds
- binding [3]: binds
- binding [4]: binds
- binding [5]: binds
- binding [6]: binds
- binding [7]: binds
- binding [8]: binds
Substance: Cdc28 (endogenous, yeast whole cell extract) (from UniProt P00546 1-298)

- binding [9]: no binding
Substance: Histone-H3 (endogenous, yeast whole cell extract) (from UniProt P61830 1-136)
- binding [10]: no binding (tested: 2, 4 and 6 μg GST-Yih1)
